# Results taken from PubChem BioAssay AID504467 (National Center for Advancing Translational Sciences (NCATS), 2011).
# Among all 330,000 compounds or so, about 7,700 (2.3%) were called active. Inconclusive results, whose numbers are uncertain, are shown with a selection of clear calls. Calls come from the whole dose curve; as a rule, active = well fitted inhibition curve with a large enough effect; inconclusive = small, poorly fitted or top-dose-only effect, or effect the other way; inactive = flat fitted curve, though single readings scatter. Potencies beside an inconclusive call are fits to weak or partial responses and may not hold up.
# Assay: qHTS screen for small molecules that inhibit ELG1-dependent DNA repair in human embryonic kidney (HEK293T) cells expressing luciferase-tagged ELG1; note: nearly all actives have a fitted effect of over 55% in size
# Conditions: HEK293T ELG1-luciferase reporter, luminescence, 16 h, DNA damage induced by 5-fluorouridine; activity change, negative = inhibition: at 46.1 µM (top of the series)
# In short: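 Luminescence from the luciferase reporter, measured 30 min after ONE-Glo reagent at room temperature, was the read-out. Beforehand, 2,000 cells per well were exposed for 16 hr at 37 °C to 5-fluorouridine together with compound or vehicle.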
# % is set by controls: 0 for no effect and ±100 for the full control effect; potency is the fitted concentration of half-maximal effect.
SMILES,Potency,"activity change, negative = inhibition"
O=C(NCN1C(=O)C2C3C=CC(C3)C2C1=O)Nc1ccccc1O (centres undefined),"inconclusive: 29.1 µM [activator, partial curve, poor fit]",–
Cc1cc2nnc(SCC(=O)NC3CCCCC3)n2c(N)n1,–,inactive: -0.271%
Cc1c(NC(=O)c2ccc(NS(=O)(=O)c3ccccc3)cc2)c(=O)n(-c2ccccc2)n1C,–,inactive: -15.3%
Cc1cc(C)c2cc(CN(CCN(C)C)C(=O)Nc3ccccc3Cl)c(=O)[nH]c2c1,"inconclusive: 20.6 µM [inhibitor, single point]",–
CCCNc1ccc(C(=O)OCC)cc1[N+](=O)[O-],"inconclusive: 16.4 µM [activator, partial curve]",–
Cc1c(Br)c([N+](=O)[O-])nn1CC(=O)Nc1nccs1,"inconclusive: 20.6 µM [activator, partial curve]",–
Cc1ccc(NC(=O)c2c(C)noc2C)cc1,–,inactive: 7.59%
c1ccc(OCCCc2nc(-c3ccccn3)no2)cc1,"inconclusive: 14.1 µM [activator, partial curve, poor fit]",–
NC(=O)c1c(NC(=O)c2cccnc2Cl)sc2c1CCCC2,"inconclusive: 16.4 µM [activator, single point]",–
CCOC(=O)c1cc2c(nc1N)CCCC2,–,inactive: 0%
C/C(=N\NC(=O)CSc1nc2ccccc2c(=O)n1-c1ccccc1C)c1cccs1,"inconclusive: 32.6 µM [inhibitor, single point]",–
COc1cccc(CNc2cccc(C(F)(F)F)c2)c1O,"inconclusive: 9.2 µM [inhibitor, partial curve]",–
Nc1c(C(=O)NCCN2CCOCC2)c2nc3ccccc3nc2n1-c1cccc(F)c1,"inconclusive: 16.4 µM [inhibitor, single point]",–
CCOC(=O)c1cc2sccc2n1CC(=O)Nc1ccc(OC)cc1,"inconclusive: 0.517 µM [activator, partial curve, poor fit]",–
O=c1[nH]c(N/N=C\c2ccc(F)cc2)nc2ccccc12,"inconclusive: 4.61 µM [activator, partial curve]",–
Nc1nc(-c2cccnc2)nn1C(=O)c1ccc(F)cc1,"inconclusive: 23.1 µM [activator, partial curve, poor fit]",–
O=C(N/N=C/c1sc(N2CCOCC2)nc1-c1ccccc1)c1ccc(O)cc1,"inconclusive: 23.1 µM [inhibitor, single point]",–
COc1ccc(CCNC(=O)c2ccc3nc[nH]c3c2)cc1,"inconclusive: 29.1 µM [activator, partial curve, poor fit]",–
CCOC(=O)c1cnc2nc(SC)nn2c1N,"inconclusive: 25.9 µM [activator, single point]",–

# One compound at a time, from the list above:
# `CCOC(=O)c1cc2c(nc1N)CCCC2` is listed as activity change, negative = inhibition: inactive: 0%
# `O=C(N/N=C/c1sc(N2CCOCC2)nc1-c1ccccc1)c1ccc(O)cc1` is listed as Potency: inconclusive: 23.1 µM [inhibitor, single point]
